This is an account of results in patent US4056540A, “4-Phenyl-1,3-benzodioxans” (Bristol-Myers Company, priority 1975, dated 1977).

A word on the LD50: it is the dose expected to kill half of the subjects tested. Low readings indicate greater toxicity, high ones lower toxicity.

This data set can be described thus: in vivo. The following applies: mouse, po, 24 hours observation.

As to `CN1C(=O)CN=C(c2ccccc2)c2cc(Cl)ccc21` [Diazepam, reference compound], the LD50 at 24 h was 1400 mg/kg.
